## Library screen at single concentrations

The values are deposited in ChEMBL (CHEMBL3988442, “University of Dundee, Small-Polar-MMV Screening Library” (2021)).

Values are the deposited “Percent Effect”, in %.
The controls that fix the scale are not given in the record; negative values are as filed.
The compounds are a random part of those screened.
Two or more numbers in one place are separate tests of the same structure; such repeats can differ widely.
A dash means the value is not listed here; it may have been measured.

Leishmania in macrophages: 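Cell assay of Leishmania donovani living inside macrophages; the read-out is not stated. Concentration: 30 µM. Higher reads as stronger inhibition (inferred: compounds with an IC50 in retests scored well above the rest). Size under these conditions: about 69,000 compounds, about 1,000 of them at 50% or above in at least one test.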
Toxoplasma: 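Assay of Toxoplasma gondii numbers, read through their beta-galactosidase reporter with a colour substrate. Tested at 10 µM. Higher reads as fewer parasites (inferred from which compounds were picked for retests). Of about 67,000 compounds tested this way, about 260 (0.38%) reached 50% or more in at least one test.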

| Compound | Leishmania in macrophages | Toxoplasma |
|---|---|---|
| `Cc1cccc2nc(CSCc3nnnn3C(C)C)cn12` | 21.42% | 12.23% |
| `O=C(NCc1ccc2[nH]c(=O)[nH]c2c1)c1ccc(CN2CCCC2)o1` | 15.27% | 4.811% |
| `COc1cccc(-c2cc(C(=O)Nc3nc[nH]n3)[nH]n2)c1` | 5.876% | 20.51% |
| `COc1ccccc1-c1ncc(CN2CCC3(CCN(C)C3)CC2)cn1` | 25.76% | 1.897% |
| `O=C(O)C(F)(F)F.[H][C@@]12CCN(Cc3c(C)noc3C)C[C@]1(C(=O)N(C)C)CCO2` | 22.08% | -5.118% |
| `CC(C)N1CCC(Cc2cncc(-c3cc(F)ccc3C(=O)O)n2)C1` (stereo not given) | -5.89% & -6.085% | 3.447% |
| `Cc1n[nH]c(C2CN(CC(=O)NCc3cccs3)CCO2)n1` (stereo not given) | -68.8% | -1.943% |
| `O=C(NCCCn1ccnc1)NCC(c1ccco1)N1CCCC1` (stereo not given) | 2.866% | 17.21% |
| `CCN(CC(=O)NC(C)C)C(=O)c1csc(Cc2ccccc2)n1` | 1.332% | 13.41% |
| `Cc1nn(C)c(C)c1C1CCCN1Cc1nnc(C2CC2)n1C` (stereo not given) | 19.54% | 4.14% |
| `NC(=O)c1cccc(C(=O)N2CCCC(n3ccnc3)C2)c1` (stereo not given) | 19.01% | -17.62% |
| `O=C(CNC(=O)C1CC1)Nc1c(F)cccc1Oc1ccccc1` | 8.395% | 5.869% |
| `COc1ccc(C)cc1C(=O)N1CCCC(n2cncn2)C1` (stereo not given) | 10.86% | 7.379% |
| `Cc1cnn(C2CN(CC(O)c3ccccc3)C2)c1` (stereo not given) | 23.66% | - |
| `O=C(O)C(F)(F)F.O=C(O)C(F)(F)F.O=C(O)C(F)(F)F.[H][C@@]12CN(Cc3cccnc3)C[C@]1([H])OCCN2c1ccc(C)nn1` | 21.83% | -8.176% |
| `CCOc1ccc(C(=O)NC2CCN(c3ncccn3)CC2)cc1C` | 17.9% | -15.86% |
| `Cc1c(Cc2ccccc2)c(O)nc2nc(N3CCOCC3)nn12` | -0.1941% | -0.8737% |
| `CN(Cc1ccccc1)C(=O)Cn1nc(N2CCSCC2)ccc1=O` | 11.94% | 14.18% |
| `Cc1ccc(N2CCCC(NCC(=O)Nc3cc(C)no3)C2)nn1` (stereo not given) | -16.43% | -3.768% |
| `Cc1nnsc1C(=O)N1CCC(c2nc3ccccc3[nH]2)CC1` | -2.757% | 16.34% |
| `[H][C@@]12CCCO[C@]1([H])[C@H](NC(=O)CC1CC1)CN(C(=O)c1ccoc1C)C2` | 15.86% | -6.53% |
| `CN(C)c1cc(C2CCN(C(=O)c3cnn(C)c3)CC2)ccn1` | 30.46% | -5.64% |
| `NC(=O)c1cnc(NC2CC2)nc1CCNC(=O)CC1CCCC1` | 11.09% | - |
| `Cc1cc(C)n(CC2CCCN2CC(=O)N(C)Cc2ccc(C)o2)n1` (stereo not given) | 94.04% | 0.6947% |
| `CC(O)c1cnn(-c2ccccc2)c1` (stereo not given) | 14.98% | -0.8032% |
| `CC(NC(=O)CCCC(=O)c1cccs1)c1nnc2n1CCC2` (stereo not given) | 29.63% | -15.49% |
| `CCOC(C)c1nc(COc2nc(C)no2)cs1` (stereo not given) | -1.825% | -19.96% |
| `COc1nc2c(cc1C(=O)NCCCc1csc(N)n1)CCC2` | -5.194% | 2.781% |
| `COCC1(CNc2cc(C(C)C)nc(N)n2)CC1` | 46.4% | -3.511% |
| `Cc1ccc2nc(C(=O)N3C[C@@H](C(=O)O)[C@H](c4ccccc4)C3)cn2c1` | 31.61% | 8.496% |
| `O=C(NCCn1nc2ccccn2c1=O)c1sccc1-c1ccccc1` | 25.6% | 0.229% |
| `COCc1nc2ncc3c(=O)n(-c4cccc(OC)c4)ccc3n2n1` | 31.07% | 21.51% |
| `c1cncc(CN2CCCC3(COCCN(c4nccs4)C3)C2)c1` (stereo not given) | 29.55% | -46.97% |
| `[H][C@@]12CN(C(=O)[C@H]3CCCO3)C[C@]1([H])C(=O)N(CCOC)C2` | 14.83% | 3.801% |
| `Cc1cc(N(C)Cc2ncc(-c3ccccc3C(=O)O)s2)ncn1` | -12.83% | 7.216% |
| `CCOCCNC(=O)CCC1CCCO1` (stereo not given) | -43.9% | 1.725% |
| `Cc1cc(C)n(CC(C)NCc2nncn2C2CCCCC2)n1` (stereo not given) | -6.28% | 1.019% |
| `CC(C)Nc1ncccc1C(=O)NCc1ccnn1C` | 13.94% | 11.58% |
| `Cc1nc(-c2ccsc2)ccc1C(=O)O` | 7.558% | -4.885% |
| `Cc1ccc(C)c(NC(=O)C(C)N2CCCN(c3nccs3)CC2)c1` (stereo not given) | 3.819% | 3.704% |
| `CC(NC(=O)NCC1(c2ccc(Cl)cc2)CC1)c1nncn1C` (stereo not given) | -5.76% | 2.288% |
| `O=C(CCc1ccc(F)cc1)NS(=O)(=O)c1ccc2c(c1)OCCO2` | -10.83% | 0.3367% |
| `NC(=O)CN1CCC(NC2CCCCc3ccccc32)CC1` (stereo not given) | -14.28% | -1.622% |
| `CC(c1ccco1)N(C(=O)c1cccc(C#N)c1)C1CC1` (stereo not given) | 11.72% | -1.189% |
| `CS(=O)(=O)Cc1nc(CNc2c(F)cc(F)cc2F)cs1` | 11.89% | 10.48% |
| `Cc1nc(C)n(CC2CCCN(CC(=O)Nc3c(C)n[nH]c3C)C2)n1` (stereo not given) | 24.28% | 11.29% |
| `Cc1ccc(-c2nc(CN3CCOCS3(=O)=O)c(C)o2)cc1` | 3.341% | -7.437% |
| `Cn1ccc(C(=O)N2CCN(c3ncccn3)CC2)cc1=O` | -1.284% | 9.592% |
| `Cc1cc(C[C@@H]2COC[C@@H]2NC(=O)CN2CCc3ccccc3C2)on1` | 18.9% | 7.781% |
| `CCc1nc(CN2CCN(C(=O)c3csnn3)CC2)cs1` | 27.48% | 9.912% |
| `CCn1ccnc1CN1CCCN(C(=O)COC2CCCC2)CC1` | 4.622% | -7.907% |
| `CN(CC1CCCO1)c1nc(-c2cccnc2)nc2c1CCNCC2` (stereo not given) | 34.58% | 9.176% |
| `CC(NC(=O)C1CC1)C(=O)N(C)Cc1ccsc1` (stereo not given) | -2.328% | 4.016% |
| `CCN(Cc1noc(C2CCC2)n1)C(=O)c1cn2ccsc2n1` | -16.63% | -31.69% |
| `Cn1cccc1C(=O)N1CCC2(CCN2c2ncccn2)C1.O=C(O)C(F)(F)F` (stereo not given) | 9.517% | 13.73% |
| `[H][C@@]12CS(=O)(=O)C[C@]1([H])NCCN2C(=O)COc1ccc(C)nc1` | 8.182% | -18.72% |
| `c1cncc(COc2ccccc2CNC2CCc3ncnn3C2)c1` (stereo not given) | -26.03% | 13.07% |
| `O=C(NC1CC1)N1CCOCC2(C1)CN(c1ccccc1)C(=O)CO2` (stereo not given) | 24.82% | 17.23% |
| `Cc1ccc(CN(C(=O)NCC(c2cccs2)N(C)C)C2CC2)o1` (stereo not given) | -10.8% | -8.947% |
| `O=C(Nc1cc(Cl)ccc1Cl)NC1CCN(C2CCOC2)CC1` (stereo not given) | -19.47% | -3.977% |
| `Cc1ncsc1C(=O)NC1CCN(CCC(N)=O)CC1` | 19.21% | 7.305% |
| `Cc1cnn(CC2CCCCN2C(=O)Cc2cn3ccsc3n2)c1` (stereo not given) | -1.129% | 5.196% |
| `CCC[C@@H]1CN(C(=O)CCc2ccco2)C[C@H]1NS(C)(=O)=O` | -3.837% | 3.228% |
| `CCCS(=O)(=O)CCN1CCOC(c2ccsc2)C1` (stereo not given) | 22.47% | 1.831% |
| `Cc1cc(F)ccc1S(=O)(=O)N1CCN(C)Cc2ccccc21` | 1.674% | -0.8021% |